The test addresses IM30_H2-3a (amino acids 22-145), WT fragment of Synechocystis IM30 (Synechocystis sp. PCC 6803) (UniProt Q55707). Kind of test: SEC-MALS; Superdex 200 Increase 10/300 GL, 25 mM HEPES pH 7.5, 125 mM NaCl, 5% glycerol (w/w), RT; both purified. On the technique in general: In gel filtration, larger molecules generally elute earlier.

No constants are given. Whether binding was seen depends on the method and setting.

B1: IM30_H2-3a (amino acids 22-145), WT fragment of Synechocystis IM30 (domain or fragment, UniProt Q55707 22-145)
chain: AEDPEKVLEQAVIDMQEDLVQLRQAVARTIAEEKRTEQRLNQDTQEAKKWEDRAKLALTNGEENLAREALARKKSLTDTAAAYQTQLAQQRTMSENLRRNLAALEAKISEAKTKKNMLQARAKA
For B1, the binding result is “no binding”.
